Reference: patent publication US20260132192A1 (XBIOTECH, published 2026)
Results are given in words; binding and its absence hold for the method and conditions named. Some results given as binding are weak or reduced against the parent protein; the word gives no strength.

Molecular target: T1, recombinant human IL-1α (human, UniProt P01583 113-271)
T1 sequence (looked up): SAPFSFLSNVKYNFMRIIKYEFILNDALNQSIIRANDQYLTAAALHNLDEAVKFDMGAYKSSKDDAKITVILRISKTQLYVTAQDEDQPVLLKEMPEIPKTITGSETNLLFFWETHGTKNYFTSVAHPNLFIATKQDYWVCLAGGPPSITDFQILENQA
Assay: ELISA screen of phage supernatants on plates coated with recombinant human IL-1α, anti-FLAG detection

binding: binds
B1: human monoclonal antibody designated XIA12 (antibody, V domains shown)
VH: QVQLVQSGAEVKKPGSSVKVSCKASGGRFTNYAILWVRQAPGQGLQWLGGIIPIFDETDHAQDFQDRLTITVDESMTTAYMELSSLRPEDTAIYYCATGSNSYYGLYWGQGTLVTVSS
VL: DIVMTQSPDFLAVSLGERATINCKSSQSVLYSSDNKNYLAWYQQKAGQPPKLLIYWASTRESGVPDRFSGSGSATDFTLTISSLQAEDVAVYYCQQYYSLPITFGQGTRLEIKR
